# Source: the supplement of paper PMC8728848
# Some of the results follow.
# Key:
# Test in all cases: glycan array binding signal (z-score within array); higher = stronger binding
# Details in all cases: glycan notation: IUPAC condensed, linker removed
# [1] = target: Fuc(a1-2)Gal
# How it was run: (§1)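 Columns mapping to the same glycan were averaged after glycan names were converted to IUPAC-condensed notation. The data come from 3228 arrays in the Consortium for Functional Glycomics database, limited to those with an available protein sequence. Binding is reported as a within-array Z-score averaged across arrays of one protein sequence and across linkers.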
# [2] = target: Fuc(a1-2)Gal(b1-3)GalNAc
# How it was run: as §1
# [3] = target: Fuc(a1-2)Gal(b1-3)GalNAc(a1-3)[Fuc(a1-2)]Gal(b1-4)Glc
# How it was run: as §1
# [4] = target: Fuc(a1-2)Gal(b1-3)GalNAc(a1-3)[Fuc(a1-2)]Gal(b1-4)GlcNAc
# How it was run: as §1
# [5] = target: Fuc(a1-2)Gal(b1-3)GalNAc(b1-3)Gal
# How it was run: as §1
# [6] = target: Fuc(a1-2)Gal(b1-3)GalNAc(b1-3)Gal(a1-4)Gal(b1-4)Glc
# How it was run: as §1
# [7] = target: Fuc(a1-2)Gal(b1-3)GalNAc(b1-4)[Neu5Ac(a2-3)]Gal(b1-4)Glc
# How it was run: as §1
# [8] = target: Fuc(a1-2)Gal(b1-3)GlcNAc
# How it was run: as §1
# [9] = target: Fuc(a1-2)Gal(b1-3)GlcNAc(b1-2)Man(a1-3)[Fuc(a1-2)Gal(b1-3)GlcNAc(b1-2)Man(a1-6)]Man(b1-4)GlcNAc(b1-4)GlcNAc
# How it was run: as §1
# [10] = target: Fuc(a1-2)Gal(b1-3)GlcNAc(b1-2)Man(a1-3)[Fuc(a1-2)Gal(b1-3)GlcNAc(b1-2)Man(a1-6)]Man(b1-4)GlcNAc(b1-4)[Fuc(a1-6)]GlcNAc
# How it was run: as §1
# [11] = target: Fuc(a1-2)Gal(b1-3)GlcNAc(b1-3)Gal(b1-4)Glc
# How it was run: as §1
# [12] = target: Fuc(a1-2)Gal(b1-3)GlcNAc(b1-3)GalNAc
# How it was run: as §1
# [13] = target: Fuc(a1-2)Gal(b1-3)GlcNAc(b1-3)[Fuc(a1-2)Gal(b1-3)GlcNAc(b1-6)]GalNAc
# How it was run: as §1
# [14] = target: Fuc(a1-2)Gal(b1-3)GlcNAc(b1-3)[Fuc(a1-3)[Gal(b1-4)]GlcNAc(b1-6)]Gal(b1-4)Glc
# How it was run: as §1
# [15] = target: Fuc(a1-2)Gal(b1-3)GlcNAc(b1-3)[Gal(b1-4)GlcNAc(b1-6)]Gal(b1-4)Glc
# How it was run: as §1
# [16] = target: Fuc(a1-2)Gal(b1-3)GlcNAc(b1-3)[Neu5Ac(a2-6)Gal(b1-4)GlcNAc(b1-6)]Gal(b1-4)Glc
# How it was run: as §1
# [17] = target: Fuc(a1-2)Gal(b1-3)GlcNAc6S
# How it was run: as §1
# [18] = target: Fuc(a1-2)Gal(b1-3)[Fuc(a1-4)]GlcNAc
# How it was run: as §1
# [19] = target: Fuc(a1-2)Gal(b1-3)[Fuc(a1-4)]GlcNAc(b1-2)Man(a1-3)[Fuc(a1-2)Gal(b1-3)[Fuc(a1-4)]GlcNAc(b1-2)Man(a1-6)]Man(b1-4)GlcNAc(b1-4)GlcNAc
# How it was run: as §1
# [20] = target: Fuc(a1-2)Gal(b1-3)[Fuc(a1-4)]GlcNAc(b1-2)Man(a1-6)[Fuc(a1-2)Gal(b1-3)[Fuc(a1-4)]GlcNAc(b1-2)Man(a1-3)]Man(b1-4)GlcNAc(b1-4)[Fuc(a1-6)]GlcNAc
# How it was run: as §1
# [21] = target: Fuc(a1-2)Gal(b1-3)[Fuc(a1-4)]GlcNAc(b1-3)[Fuc(a1-3)[Gal(b1-4)]GlcNAc(b1-6)]Gal(b1-4)Glc
# How it was run: as §1
# [22] = target: Fuc(a1-2)Gal(b1-3)[Fuc(a1-4)]GlcNAc(b1-3)[Gal(b1-4)GlcNAc(b1-6)]Gal(b1-4)Glc
# How it was run: as §1
# [23] = target: Fuc(a1-2)Gal(b1-4)Glc
# How it was run: as §1
# [24] = target: Fuc(a1-2)Gal(b1-4)Glc6S
# How it was run: as §1
# [25] = target: Fuc(a1-2)Gal(b1-4)GlcNAc
# How it was run: as §1
# [26] = target: Fuc(a1-2)Gal(b1-4)GlcNAc(b1-2)Man
# How it was run: as §1
# [27] = target: Fuc(a1-2)Gal(b1-4)GlcNAc(b1-2)Man(a1-3)[Fuc(a1-2)Gal(b1-4)GlcNAc(b1-2)Man(a1-6)]Man(b1-4)GlcNAc(b1-4)GlcNAc
# How it was run: as §1
# [28] = target: Fuc(a1-2)Gal(b1-4)GlcNAc(b1-2)Man(a1-3)[Fuc(a1-2)Gal(b1-4)GlcNAc(b1-2)Man(a1-6)]Man(b1-4)GlcNAc(b1-4)[Fuc(a1-6)]GlcNAc
# How it was run: as §1
# [29] = target: Fuc(a1-2)Gal(b1-4)GlcNAc(b1-2)[Fuc(a1-2)Gal(b1-4)GlcNAc(b1-4)]Man(a1-3)[Fuc(a1-2)Gal(b1-4)GlcNAc(b1-2)Man(a1-6)]Man(b1-4)GlcNAc(b1-4)GlcNAc
# How it was run: as §1
# [30] = target: Fuc(a1-2)Gal(b1-4)GlcNAc(b1-3)Gal(b1-4)GlcNAc
# How it was run: as §1
binder,measurement,setting,value
"Latrophilin-3 (Homo sapiens), Q9HAR2 (protein) MWPSQLLIFMMLLAPIIHAFSRAPIPMAVVRRELSCESYPIELRCPGTDVIMIESANYGRTDDKICDSDPAQMENIRCYLPDAYKIMSQRCNNRTQCAVVAGPDVFPDPCPGTYKYLEVQYECVPYKVEQKVFLCPGLLKGVYQSEHLFESDHQSGAWCKDPLQASDKIYYMPWTPYRTDTLTEYSSKDDFIAGRPTTTYKLPHRVDGTGFVVYDGALFFNKERTRNIVKFDLRTRIKSGEAIIANANYHDTSPYRWGGKSDIDLAVDENGLWVIYATEQNNGKIVISQLNPYTLRIEGTWDTAYDKRSASNAFMICGILYVVKSVYEDDDNEATGNKIDYIYNTDQSKDSLVDVPFPNSYQYIAAVDYNPRDNLLYVWNNYHVVKYSLDFGPLDSRSGQAHHGQVSYISPPIHLDSELERPSVKDISTTGPLGMGSTTTSTTLRTTTLSPGRSTTPSVSGRRNRSTSTPSPAVEVLDDMTTHLPSASSQIPALEESCEAVEAREIMWFKTRQGQIAKQPCPAGTIGVSTYLCLAPDGIWDPQGPDLSNCSSPWVNHITQKLKSGETAANIARELAEQTRNHLNAGDITYSVRAMDQLVGLLDVQLRNLTPGGKDSAARSLNKAMVETVNNLLQPQALNAWRDLTTSDQLRAATMLLHTVEESAFVLADNLLKTDIVRENTDNIKLEVARLSTEGNLEDLKFPENMGHGSTIQLSANTLKQNGRNGEIRVAFVLYNNLGPYLSTENASMKLGTEALSTNHSVIVNSPVITAAINKEFSNKVYLADPVVFTVKHIKQSEENFNPNCSFWSYSKRTMTGYWSTQGCRLLTTNKTHTTCSCNHLTNFAVLMAHVEVKHSDAVHDLLLDVITWVGILLSLVCLLICIFTFCFFRGLQSDRNTIHKNLCISLFVAELLFLIGINRTDQPIACAVFAALLHFFFLAAFTWMFLEGVQLYIMLVEVFESEHSRRKYFYLVGYGMPALIVAVSAAVDYRSYGTDKVCWLRLDTYFIWSFIGPATLIIMLNVIFLGIALYKMFHHTAILKPESGCLDNIKSWVIGAIALLCLLGLTWAFGLMYINESTVIMAYLFTIFNSLQGMFIFIFHCVLQKKVRKEYGKCLRTHCCSGKSTESSIGSGKTSGSRTPGRYSTGSQSRIRRMWNDTVRKQSESSFITGDINSSASLNREGLLNNARDTSVMDTLPLNGNHGNSYSIASGEYLSNCVQIIDRGYNHNETALEKKILKELTSNYIPSYLNNHERSSEQNRNLMNKLVNNLGSGREDDAIVLDDATSFNHEESLGLELIHEESDAPLLPPRVYSTENHQPHHYTRRRIPQDHSESFFPLLTNEHTEDLQSPHRDSLYTSMPTLAGVAATESVTTSTQTEPPPAKCGDAEDVYYKSMPNLGSRNHVHQLHTYYQLGRGSSDGFIVPPNKDGTPPEGSSKGPAHLVTSL",glycan array binding signal (z-score),[1],0.041
same,glycan array binding signal (z-score),[2],-0.639
same,glycan array binding signal (z-score),[3],0.661
same,glycan array binding signal (z-score),[4],-1.01
same,glycan array binding signal (z-score),[5],-0.64
same,glycan array binding signal (z-score),[6],-0.106
same,glycan array binding signal (z-score),[7],-0.493
same,glycan array binding signal (z-score),[8],-0.169
same,glycan array binding signal (z-score),[9],-0.156
same,glycan array binding signal (z-score),[10],-0.243
same,glycan array binding signal (z-score),[11],-0.869
same,glycan array binding signal (z-score),[12],0.261
same,glycan array binding signal (z-score),[13],-0.608
same,glycan array binding signal (z-score),[14],-0.264
same,glycan array binding signal (z-score),[15],-0.734
same,glycan array binding signal (z-score),[16],1.49
same,glycan array binding signal (z-score),[17],-0.694
same,glycan array binding signal (z-score),[18],-0.277
same,glycan array binding signal (z-score),[19],1.09
same,glycan array binding signal (z-score),[20],1.64
same,glycan array binding signal (z-score),[21],1.12
same,glycan array binding signal (z-score),[22],1.73
same,glycan array binding signal (z-score),[23],0.892
same,glycan array binding signal (z-score),[24],0.194
same,glycan array binding signal (z-score),[25],0.15
same,glycan array binding signal (z-score),[26],0.397
same,glycan array binding signal (z-score),[27],0.747
same,glycan array binding signal (z-score),[28],-0.56
same,glycan array binding signal (z-score),[29],-0.478
same,glycan array binding signal (z-score),[30],0.188
